Source: PubChem BioAssay AID1347076 (National Center for Advancing Translational Sciences (NCATS), 2019)
Hit rate of the full screen: of about 400,000 compounds, about 13,000 (3.2%) were called active. Inconclusive means that the source gave no clear call. Such entries were picked first, then a sample of the others. Calls follow the shape of the dose curve; as a rule, active = well fitted cell-killing curve with a large enough effect; inconclusive = small, poorly fitted or top-dose-only effect, or effect the other way; inactive = flat fitted curve, though single readings scatter. A potency beside an inconclusive call is a rough fit, not a confirmed value.
Potency is read from the fitted curve at half-maximal effect.

Assay: qHTS assay for MDR1-selective chemotherapeutics: Primary screen using the drug-selected MDR subline cells KB-V1; also: nearly all actives have a fitted effect of over 60% in size
Details: KB-V1 MDR cells viability, CellTiter-Glo, 72 h; series mostly up to 46.1 µM
Procedure, shortened: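 KB-V1, DMEM (no phenol red) + 10% FBS; cpd pin-transferred, titration series; 72 h, 37 degrees C; CellTiter-Glo, luminescence. Data normalized, curve-fit.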
With `CCOc1ccccc1NC(=O)N1CCC(c2nc3ccc(C)cc3[nH]2)CC1` the Potency was inconclusive: 11.6 µM [cytotoxic, partial curve, poor fit].
In the case of `Cc1nn(-c2ccccc2)c2sc(C(=O)N3CCCCC3)cc12`, the Potency was inconclusive: 14.6 µM [cytotoxic, partial curve].
With `COc1ccc(/C=N/Nc2nnc(C)n2N)cc1OC(C)=O` the Potency was “inactive”.
With `Cc1ccc(-n2c(C)cc(C3N=C(N)Nc4nc5ccccc5n43)c2C)c(C)c1` (centres undefined) the Potency was “inactive”.
For `Cn1c(CN2CCCCC2)nc2cc(NC(=O)c3ccc(Cl)cc3)ccc21`, the Potency was inconclusive: 23.1 µM [cytotoxic, single point].
For `O=C(/C=C/c1ccc(Br)cc1)NCCCn1ccnc1`, the Potency was “inactive”.
For `Cc1cc(C)cc(C(=O)Nn2cnnc2)c1`, the Potency was inconclusive: 18.4 µM [rising, partial curve].
For `CCOC(=O)CSc1nc2ccccc2n1CC(=O)NC(C)(C)C`, the Potency was inconclusive: 16.4 µM [cytotoxic, single point].
With `O=C(Nc1ccccc1)Nc1nc(-c2ccc(F)c(F)c2)cs1` the Potency was “inactive”.
In the case of `O=C(Cc1ccc(F)cc1)NCCc1csc(-c2ccc(C(F)(F)F)cc2)n1`, the Potency was inconclusive: 20.6 µM [cytotoxic, single point].
In the case of `Cc1ccc(CNC(=O)c2ccc(Br)o2)cc1`, the Potency was inconclusive: 18.4 µM [cytotoxic, single point].
In the case of `COC(=O)c1ccc(/C=N\NC(=O)c2c(C)nc3ccc(Cl)cn23)cc1`, the Potency was inconclusive: 0.58 µM [rising, full curve, poor fit].
With `O=[N+]([O-])c1cnc(Sc2ccncn2)s1` the Potency was inconclusive: 29.1 µM [cytotoxic, single point].
With `COc1cccc2cccc(/C=N/n3cnnc3)c12` the Potency was inconclusive: 29.1 µM [cytotoxic, single point].
In the case of `N#C/C(=C\c1cccnc1)c1ccccc1[N+](=O)[O-]`, the Potency was inconclusive: 32.6 µM [cytotoxic, single point].
With `O=C(CCN1C(=O)c2ccccc2C1=O)N1CCC(c2ccccc2)C1` (centres undefined) the Potency was inconclusive: 8.2 µM [cytotoxic, partial curve].
With `CCn1cc(S(=O)(=O)CC(=O)Nc2ccc3c(c2)OCO3)c2ccccc21` the Potency was inconclusive: 5.8 µM [cytotoxic, partial curve].
For `COc1ccc(-c2ccc3c(c2)S(=O)(=O)c2cccc(C(=O)NCc4cc(C)oc4C(F)(F)F)c2C3=O)cc1OC`, the Potency was inconclusive: 29.1 µM [rising, single point].
With `CC(C)c1ccc(N(C(=O)c2cc3ccccc3oc2=O)C2C=CS(=O)(=O)C2)cc1` (centres undefined) the Potency was inconclusive: 18.4 µM [cytotoxic, partial curve, poor fit].
